Primary screen of a compound library

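Phenotypic screen: M. tuberculosis growth, glucose 7H9 medium, 3 days; the read-out is not stated. Compounds at 50 µM. The record gives no direction; compounds that gave an IC50 in retests scored well above the rest, so higher reads as more growth inhibition. About 69,000 compounds were tested under these conditions; 1.1% (about 760) showed 50% or more at least once.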

The filed quantity is “Percent Effect” (%). The controls that fix the scale are not given in the record; negative values are as filed. This is an unselected part of the compounds tested. Two or more numbers in one place are separate tests of the same structure; such repeats can differ widely.

* O=C(c1cnc(Nc2ccccc2)nc1)N1CCC(O)(CO)CC1 | -9.388%
* CCOc1ncccc1CNC(=O)c1cc(C)on1 | -10.31%
* Nc1ncccc1C(=O)NCc1cccc(Cl)c1 | -19.97%
* COc1c(CNC2CCCc3ccccc32)c(C(C)C)nn1C (stereo not drawn) | 0.7126%
* CC(C)(C)N1CC(c2ncc(-c3ccc4c(c3)OCCO4)[nH]2)CC1=O (stereo not drawn) | 6.931%
* O=C(O)C(F)(F)F.[H][C@@]12C[C@H](C(=O)NC3CC3)CN(CC3CCOCC3)[C@]1([H])CCO2 | -25.77%
* Cc1noc(C)c1C(=O)N1Cc2ncn(C)c2C(COCC(C)C)C1.O=C(O)C(F)(F)F (stereo not drawn) | 1.802%
* OCC1(NCc2cccc(-n3cccn3)c2)CCOCC1 | -6.274%
* O=C(NCc1cccs1)NCC1(O)CCc2ccccc2C1 (stereo not drawn) | -4.374%
* Cc1ccc(C(=O)NCC2CCCCO2)c(=O)[nH]1 (stereo not drawn) | -5.037%
* Cc1ccc(NC2CCN(C(=O)c3cscn3)CC2)nn1 | 6.567%
* Cc1cc(CN(C)C(=O)CN2CC3(CCNCC3)OC2=O)n(C)n1 | -5.832%
* O[C@@H]1C[C@@H](c2nc(Cc3ccccc3)no2)N(Cc2ccc(F)cc2)C1 | 8.434% and 16.34%
* CN(CC1CCCN1C)c1nccc(C2CCCC2)n1 (stereo not drawn) | 24.22%
* CCCN1C(=O)C2(CCCCC2)NC1c1cn(C)c(=O)n(C)c1=O (stereo not drawn) | 13.52%
* CCc1nc(CN2CC(C(=O)OC)O[C@H](C)C2)cs1 (stereo partly drawn) | -10.82%
* Cc1c(C)n(-c2ccccn2)c2nc3c(c(N)c12)CCCCC3 | 18.55%
* CN(C)c1cccc(C(=O)Nc2cn(C)c(=O)n(C)c2=O)c1 | -0.04215%
* Cc1noc(C(C)N2CCN(c3ncnc4sccc34)CC2)n1 (stereo not drawn) | 13.61%
* O=C(c1cnccn1)N1CCCC(Cc2cccc3ncccc23)C1 (stereo not drawn) | -19.96%
* CSc1ccc(C(C(=O)O)N2CCC(CO)CC2)cc1 (stereo not drawn) | -2.965%
* C[C@@H]1CN(c2ccc3c(Cl)ccnc3c2F)CC(C(N)=O)O1 (stereo partly drawn) | 5.214%
* NC(=O)N1CCC(NCc2cc(Br)ccc2Cl)CC1 | 18.76%
* O=C(O)C(F)(F)F.[H][C@@]12CCN(S(=O)(=O)c3cccnc3)C[C@]1(C(=O)NC)CCO2 | -13.72%
* CC[C@@H]1N(Cc2cc(OC)cc(OC)c2)CCC[C@]12CCC(=O)N2C | 17.46%
* CN1CCCC(c2nccnc2-c2cccc(C(F)(F)F)c2)C1 (stereo not drawn) | 2.395%
* O=S(=O)(NCCc1nc(-c2cccnc2)n[nH]1)NCc1ccccc1 | -8.318% and -13.55%
* Cc1ncc(C(=O)N2CCCC(n3nc(C)nc3C)C2)c(C(C)C)n1 (stereo not drawn) | -6.718%
* Cc1nc(CN(C)C(=O)CN(C)C)nc2c1CCC(=O)N2CCC(C)C | 0.6989%
* CNC(=O)c1cnc2n1CCN(Cc1cccnc1)C2.O=C(O)C(F)(F)F.O=C(O)C(F)(F)F.O=C(O)C(F)(F)F | -10.1% and -3.999%

Once more, the final 3:

* Cc1ncc(C(=O)N2CCCC(n3nc(C)nc3C)C2)c(C(C)C)n1 (stereo not drawn) : -6.718%
* Cc1nc(CN(C)C(=O)CN(C)C)nc2c1CCC(=O)N2CCC(C)C : 0.6989%
* CNC(=O)c1cnc2n1CCN(Cc1cccnc1)C2.O=C(O)C(F)(F)F.O=C(O)C(F)(F)F.O=C(O)C(F)(F)F : -10.1% and -3.999%

The values are deposited in ChEMBL (CHEMBL3988442, “University of Dundee, Small-Polar-MMV Screening Library” (2021)).